First the molecules themselves.
B1: HVEM011 (antibody, human IgG4 S228P, kappa, V domains shown)
VH: EVQLLESGGGLVQPGGSLRLSCAASEFTFSSYAMHWVRQAPGKGLEWVSSITSASSYIDYADSVKGRFTISRDNSKNTLYLQMNSLRAEDTAVYYCARGTRGLFDHWGQGTLVTVSS
VL: EIVLTQSPGTLSLSPGERATLSCRASRSVGKYLAWYQQKPGQAPRLLIYLGSNRASGIPDRFSGSGSGTDFTLTISRLEPEDFAVYYCQQYGSSPPITFGQGTKVEIKR
notes: Full-size human IgG4 (S228P) kappa antibody made in ExpiCHO-S; human IL-2 signal peptide is cleaved and left out; also called HVEM011 antibody
B2: HVEM017 (antibody, human IgG4 S228P, kappa, V domains shown)
VH: EVQLLESGGGLVQPGGSLRLSCAASGFTFSTNYMSWVRQAPGKGLEWVSLISYSGSNKYYADSVKGRFTISHDNSKNTLYLQMNSLRAEDTAVYYCARGRGNTISGTFDLWGQGTLVTVSS
VL: EIVLTQSPGTLSLSPGERATLSCRASRSVGKYLAWYQQKPGQAPRLLIYSASTLSSGIPDRFSGSGSGTDFTLTISRLEPEDFAVYYCQQYGSSPPITFGQGTKVEIKR
notes: also called HVEM0017
B3: HVEM030 (antibody, human IgG4 S228P, kappa, V domains shown)
VH: EVQLLESGGGLVQPGGSLRLSCAASGFTFSGYYWTWVRQAPGKGLEWVSTISASGDSTYYADSVKGRFTISRDNSKNTLYLQMNSLRAEDTAVYYCAHDRTFGYFDYWGQGTLVTVSS
VL: EIVLTQSPGTLSLSPGERATLSCRASRSVGKYLAWYQQKPGQAPRLLIYAASSLQSGIPDRFSGSGSGTDFTLTISRLEPEDFAVYYCQQYGSSPPITFGQGTKVEIKR
B4: HVEM018 (antibody, human IgG4 S228P, kappa, V domains shown)
VH: EVQLLESGGGLVQPGGSLRLSCAASGFTFSSYSMNWVRQAPGKGLEWVSAISGSGGGTYSADSVKGRFTISRDNSKNTLYLQMNSLRAEDTAVYYCARGKAYGYFDYWGQGTLVTVSS
VL: EIVLTQSPGTLSLSPGERATLSCRASRSVGKYLAWYQQKPGQAPRLLIYAASTLQSGIPDRFSGSGSGTDFTLTISRLEPEDFAVYYCQQYGSSPPVIFGQGTKVEIKR
B5: HVEM032 (antibody, human IgG4 S228P, kappa, V domains shown)
VH: EVQLLESGGGLVQPGGSLRLSCAASGFTFSNYAIHWVRQAPGKGLEWVSTISSPGSTINYADSVKGRFTISRDNSKNTLYLQMNSLRAEDTAVYYCASGYLYPAMDVWGQGTLVTVSS
VL: EIVLTQSPGTLSLSPGERATLSCRASRSVGKYLSWYQQKPGQAPRLLIYGASKLQSGIPDRFSGSGSGTDFTLTISRLEPEDFAVYYCQQYGSWPPFTFGQGTKVEIKR
B6: HVEM004 (antibody, human IgG4 S228P, kappa, V domains shown)
VH: EVQLLESGGGLVQPGGSLRLSCAASGFTFSSYAMSWVRQAPGKGLEWVSSISGSGGKTYYADSVRGRFTISRDNSKNTLYLQMNSLRAEDTAVYYCAKGVGYTTSGRFDYWGQGTLVTVSS
VL: EIVLTQSPGTLSLSPGERATLSCRASRSISSYLAWYQQKPGQAPRLLIYGVSTRATGIPDRFSGSGSGTDFTLTISRLEPEDFAVYYCQQYGSWPPFTFGQGTKVEIKR
B7: HVEM039 (antibody, human IgG4 S228P, kappa, V domains shown)
VH: EVQLLESGGGLVQPGGSLRLSCAASGFTFSSYGMNWVRQAPGKGLEWVSIINPSGDTTTYAQKFQGRFTISRDNSKNTLYLQMNSLRAEDTAVYYCARGRGAFDYWGQGTLVTVSS
VL: EIVLTQSPGTLSLSPGERATLSCRASRSVGKYLAWYQQKPGQAPRLLIYGATSRATGIPDRFSGSGSGTDFTLTISRLEPEDFAVYYCQQYGSSPPVTFGQGTKVEIKR

Protein sequences, listed by entry. Tags and fused reporters are not part of them. Lines headed by an entry give the natural chain unless they say otherwise; changes in a name come on top.
UniProt Q92956: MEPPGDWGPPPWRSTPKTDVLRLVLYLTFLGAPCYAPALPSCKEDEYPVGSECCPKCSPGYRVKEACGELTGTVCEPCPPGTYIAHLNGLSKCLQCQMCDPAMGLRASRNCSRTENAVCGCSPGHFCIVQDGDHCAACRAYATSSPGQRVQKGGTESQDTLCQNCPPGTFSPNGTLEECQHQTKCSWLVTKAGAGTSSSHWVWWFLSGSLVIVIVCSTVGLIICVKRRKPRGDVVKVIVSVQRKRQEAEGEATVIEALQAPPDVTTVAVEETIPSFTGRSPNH

These are yes or no findings as the source states them, for the method shown. Some results given as binding are weak or reduced against the parent protein; the word gives no strength.

The experiment addresses HVEM protein stably expressed in Jurkat-Lucia NFAT cells (Homo sapiens (Human)) (UniProt Q92956). As to the kind of experiment: flow cytometry: human LIGHT 0.25 ug/ml on HVEM-expressing Jurkat cells with antibody 10 or 100 nM, anti-His-APC; ligand LIGHT.
With B1, the binding entry is given as “binds”.
Consider B2, for which the binding entry is reported as “binds”.
Regarding B3, the binding result is “binds”.
B4: the binding entry is recorded as “binds”.
With B5, the binding entry is “binds”.
Consider B6, for which the binding entry was “binds”.
For the molecule B7, the binding result was “binds”.

The record behind these values is US20240034800A1 (MEDYTOX, published 2024).
